PubChem BioAssay AID328 (DTP/NCI, 2004)
The list shows only some results of the screen, not a fair sample: it gathers tests that were run many times, whatever their T/C, doses with no T/C, and many T/C values between a quarter and a half above the control. Further doses and runs are listed elsewhere. T/C gives the treated animals as a percentage of the vehicle group. Some doses have a count of surviving animals in place of a T/C: the source holds a T/C of zero for them, seemingly a mark for toxic or unscored doses. Some doses without a T/C left all or most animals alive at the check, yet need not have been tolerated: the source hardly ever lists a survival T/C far under the control, and the zero likely stands for such cases as well. Counts of survivors are from the toxicity check (mostly the fifth day) where no day follows; animals may have died later. Schedules are NCI's codes, taken here to give the interval after Q, in days (D) or hours (H), and the number of doses after X. For survival time, the PubChem record calls one and a half times the control and up active, and a quarter to a half above the control has no call in these data; cut-offs in other NCI protocols can differ. Marks such as (2×) stand for listed records that agree. Some entries were tested several times; the values are given in rising order. Some T/C values are followed by the survivors on the day toxicity was checked, most often the fifth; without a count, all were alive then.

System: BDF1 mice, P388 leukemia ip, median survival T/C
Experiment: NCI In Vivo Anticancer Drug Screen. Data for tumor model P388 Leukemia (intraperitoneal) in B6D2F1 (BDF1) mice
Settings: T/C endpoint: median survival time, higher T/C = longer survival
Outline: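 Read-out is survival of treated animals expressed relative to the vehicle group, as a T/C ratio.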

[1] = dose: 200.0 mg/kg/injection, schedule: Q01DX009 (ip), vehicle: saline with Tween-80
[2] = dose: 400.0 mg/kg/injection, schedule: Q01DX009 (ip), vehicle: saline with Tween-80
[3] = dose: 100.0 mg/kg/injection, schedule: Q01DX009 (ip), vehicle: saline
[4] = dose: 400.0 mg/kg/injection, schedule: Q01DX009 (ip), vehicle: Klucel (hydroxypropylcellulose) (HPC)
[5] = dose: 50.0 mg/kg/injection, schedule: Q01DX009 (ip), vehicle: Klucel (hydroxypropylcellulose) (HPC)
[6] = dose: 200.0 mg/kg/injection, schedule: Q01DX009 (ip), vehicle: Klucel (hydroxypropylcellulose) (HPC)
[7] = dose: 400.0 mg/kg/injection, schedule: Q04DX003 (ip), vehicle: Klucel (hydroxypropylcellulose) (HPC)
[8] = dose: 50.0 mg/kg/injection, schedule: Q01DX009 (ip), vehicle: saline with Tween-80
[9] = dose: 100.0 mg/kg/injection, schedule: Q01DX009 (ip), vehicle: saline with Tween-80

## [NH-]C(CO)C(=O)O.[NH-]C(CO)C(=O)O.[Pd+2] (centres undefined)
dose: 25.0 mg/kg/injection, schedule: Q01DX009 (ip), vehicle: water
  T/C: 132 % of control
dose: 50.0 mg/kg/injection, schedule: Q01DX009 (ip), vehicle: water
  T/C: 130 % of control
dose: 100.0 mg/kg/injection, schedule: Q01DX009 (ip), vehicle: water
  survivor count: 4 of 6

## O=C(COc1cccc(Cl)c1)Nc1cccnc1
dose: 400.0 mg/kg/injection, schedule: Q01DX001 (ip), vehicle: Klucel (hydroxypropylcellulose) (HPC)
  survivor count: 2 of 6

## OCCOCC(F)(F)F
[1]
  survivor count: 6 of 6
[2]
  survivor count: 6 of 6

## NNC(=O)C(O)C(O)C(=O)NN (centres undefined)
dose: 30.0 mg/kg/injection, schedule: Q01DX009 (ip), vehicle: saline
  survivor count: 7 of 7

## O[C@@H]1CCCC[C@@H]1n1cnc2c(=S)nc[nH]c21
[2]
  survivor count: 6 of 6

## CCCCC(C)(CN(C)C)C(=O)/C=C/c1ccc(Cl)c(Cl)c1 (centres undefined)
dose: 50.0 mg/kg/injection, schedule: Q01DX009 (ip), vehicle: saline
  survivor count: 5 of 6
[3]
  survivor count: 1 of 6
dose: 200.0 mg/kg/injection, schedule: Q01DX009 (ip), vehicle: saline
  survivor count: 0 of 6

## O=S(=O)(CI)OCCCl
dose: 200.0 mg/kg/injection, schedule: Q01DX005 (ip), vehicle: Klucel (hydroxypropylcellulose) (HPC)
  survivor count: 0 of 6

## C=C(C)c1cc2c(cc1O)OCC2C (centres undefined)
dose: 75.0 mg/kg/injection, schedule: Q01DX009 (ip), vehicle: Klucel (hydroxypropylcellulose) (HPC)
  survivor count: 6 of 6
dose: 150.0 mg/kg/injection, schedule: Q01DX009 (ip), vehicle: Klucel (hydroxypropylcellulose) (HPC)
  survivor count: 6 of 6
dose: 200.0 mg/kg/injection, schedule: Q04DX003 (ip), vehicle: Klucel (hydroxypropylcellulose) (HPC)
  survivor count: 6 of 6

## BrC1C2CCC(CC2)C1Br (centres undefined)
[4]
  survivor count: 6 of 6

## CSc1ccc2c(c1)C(N1CCN(C)CC1)Cc1ccccc1S2 (centres undefined)
dose: 12.5 mg/kg/injection, schedule: Q04DX003 (ip), vehicle: saline
  T/C: 132 % of control

## NC(=O)c1nn(C2OC(CO)C(O)C2O)c2ncnc(N)c12 (centres undefined)
dose: 25.0 mg/kg/injection, schedule: Q01DX009 (ip), vehicle: Klucel (hydroxypropylcellulose) (HPC)
  survivor count: 3 of 6
[5]
  survivor count: 2 of 6
dose: 100.0 mg/kg/injection, schedule: Q01DX009 (ip), vehicle: Klucel (hydroxypropylcellulose) (HPC)
  survivor count: 0 of 6
[6]
  survivor count: 0 of 6

## CC[N+](CC)(CC)CC
dose: 6.0 mg/kg/injection, schedule: Q01DX009 (ip), vehicle: saline with Tween-80
  T/C: 131 % of control
dose: 6.25 mg/kg/injection, schedule: Q01DX009 (ip), vehicle: saline with Tween-80
  T/C: 135 % of control
dose: 9.0 mg/kg/injection, schedule: Q01DX009 (ip), vehicle: saline with Tween-80
  survivor count: 5 of 6
dose: 12.5 mg/kg/injection, schedule: Q01DX009 (ip), vehicle: saline with Tween-80
  survivor count: 6 of 6

## CC(=O)c1ccc2c(c1)N(CCCN1CCN(CCO)CC1)c1ccccc1S2
dose: 25.0 mg/kg/injection, schedule: Q01DX009 (ip), vehicle: saline
  survivor count: 6 of 6

## Nc1nc2c(c(=O)[nH]1)NC(CCNc1ccc(C(=O)O)cc1)CN2 (centres undefined)
dose: 200.0 mg/kg/injection, schedule: Q04DX003 (ip), vehicle: saline with Tween-80
  survivor count: 2 of 6
dose: 400.0 mg/kg/injection, schedule: Q04DX003 (ip), vehicle: saline with Tween-80
  survivor count: 0 of 6

## O=C1OC(C(O)CO)C(O)=C1O (centres undefined)
dose: 0.12 mg/kg/injection, schedule: Q01DX009 (ip), vehicle: saline, evaluated on day 30
  T/C: 100, 109, 110 % of control
dose: 0.12 mg/kg/injection, schedule: Q01DX009 (ip), vehicle: saline, evaluated on day 60
  T/C: 100 % of control
dose: 8.0 mg/kg/injection, schedule: Q01DX001 (ip), vehicle: saline
  survivor count: 5 of 10
dose: 400.0 mg/kg/injection, schedule: Q01DX009 (ip), vehicle: saline
  survivor count: 3 of 6

## Cc1cc(=O)[nH]c(N/N=C/c2ccco2)n1
dose: 100.0 mg/kg/injection, schedule: Q01DX009 (ip), vehicle: gum acacia
  survivor count: 0 of 6
dose: 200.0 mg/kg/injection, schedule: Q01DX009 (ip), vehicle: gum acacia
  survivor count: 0 of 6
dose: 400.0 mg/kg/injection, schedule: Q01DX009 (ip), vehicle: gum acacia
  survivor count: 0 of 6
dose: 400.0 mg/kg/injection, schedule: Q04DX003 (ip), vehicle: gum acacia
  survivor count: 4 of 6

## CCCCCCCCCCCCSSC(=S)OC(C)C
dose: 200.0 mg/kg/injection, schedule: Q01DX009 (ip), vehicle: other
  T/C: 128 % of control

## O=C1NCCN1c1cccc([N+](=O)[O-])c1
dose: 100.0 mg/kg/injection, schedule: Q04DX003 (ip), vehicle: Klucel (hydroxypropylcellulose) (HPC)
  survivor count: 4 of 6

## CCCCNC1=C(N2CC2)C(=O)C(NCCCC)=C(N2CC2)C1=O
dose: 2.5 mg/kg/injection, schedule: Q01DX009 (ip), vehicle: saline
  T/C: 142 % of control
dose: 10.0 mg/kg/injection, schedule: Q01DX009 (ip), vehicle: saline
  T/C: 149 % of control

## O=[N+]([O-])c1cc([N+](=O)[O-])c(Nn2c3ccccc3c3ccccc32)c([N+](=O)[O-])c1
[4]
  survivor count: 0 of 6
[7]
  survivor count: 2 of 6

## CCCCCC#CC(=O)O
[2]
  survivor count: 4 of 6

## CC(C#N)(C#N)N=Nc1ccc(Cl)cc1Cl
dose: 25.0 mg/kg/injection, schedule: Q01DX009 (ip), vehicle: saline with Tween-80
  T/C: 125 % of control
[8]
  T/C: 127 and 127 % of control [5 of 6 alive]
[9]
  T/C: 130 % of control
[1]
  T/C: 125 % of control (2×)

## CC1=CCCC(C)C12CCC(C(C)(C)O)C2 (centres undefined)
[2]
  survivor count: 5 of 6

## O=[N+]([O-])C=C(S)S
dose: 200.0 mg/kg/injection, schedule: Q01DX009 (ip), vehicle: water
  survivor count: 0 of 6

## COC(=O)CCCCCCCCC(C)c1ccccc1 (centres undefined)
[9]
  T/C: 125 % of control
[1]
  T/C: 130 % of control
[2]
  T/C: 130 % of control

## Brc1csc2ncccc12
[7]
  survivor count: 1 of 6

## C=C1C(=O)OC2C=C(C)C3C(O)CC(C)(O)C3CC12 (centres undefined)
[4]
  survivor count: 6 of 6

## CSc1nnc(/C=C/c2ccc3c(c2)OCO3)c(=O)n1N
dose: 400.0 mg/kg/injection, schedule: Q04DX002 (ip), vehicle: saline with Tween-80
  survivor count: 0 of 6

## CCOC(=O)CC(C)(C)NCc1ccccc1
[5]
  survivor count: 5 of 6

## CC1C=NNC1=O (centres undefined)
dose: 200.0 mg/kg/injection, schedule: Q01DX001 (ip), vehicle: saline with Tween-80
  T/C: 131 % of control
dose: 265.0 mg/kg/injection, schedule: Q01DX009 (ip), vehicle: Klucel (hydroxypropylcellulose) (HPC)
  T/C: 129 % of control
dose: 400.0 mg/kg/injection, schedule: Q01DX001 (ip), vehicle: saline with Tween-80
  T/C: 127 % of control
[4]
  T/C: 127 % of control

## COC1=C(OC)C23CCc4ccc(OC)c(O)c4C2(CCN3C)CC1=O (centres undefined)
dose: 200.0 mg/kg/injection, schedule: Q01DX010 (ip), vehicle: carboxymethylcellulose (CMC)
  survivor count: 0 of 6

## Cc1nc[nH]c1[N+](=O)[O-]
[8]
  survivor count: 6 of 6
[9]
  survivor count: 2 of 6
[1]
  survivor count: 2 of 6

## C=C1C(=O)OC2CC3(C)CC(O)C(OC(C)=O)C(=C)C3CC12 (centres undefined)
[3]
  T/C: 133 % of control [5 of 6 alive]

## CC(=O)O[C@]1(C(C)=O)CC[C@H]2[C@@H]3C[C@H](F)C4=CC(=O)CC[C@]4(C)[C@H]3CC[C@@]21C
[6]
  survivor count: 6 of 6
[4]
  survivor count: 6 of 6

## O=[N+]([O-])c1ccc(NS(=O)(=O)c2cccs2)c([N+](=O)[O-])c1
[9]
  survivor count: 3 of 6
[1]
  survivor count: 3 of 6
